{
  "source": "the supplement of paper PMC10338343",
  "note": "± gives the standard deviation. The entries are a selection whose mix differs from that of the whole data set. Many of these values have a large error.",
  "data": [
    {"test_system": "MIWI (PIWIL1) piRISC loaded with L1MC piRNA (30 nt)", "assay": "pre-steady-state target cleavage rate (min^-1); MIWI and MILI are mouse PIWI proteins and EfPiwi is from a freshwater sponge; tags in brackets are library labels; higher = faster piRNA-guided slicing of the target", "settings": "guide: L1MC piRNA 5'p-UAACUAAAUACUAUGCAAGCUGUAGGUCCU; auxiliary factor: 500 nM mouse GTSF1", "outline": "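Sequencing of uncleaved targets, normalised to depth and to weakly complementary targets, was the readout of this Cleave-'n-Seq assay. A transcribed, DNA-blocked target RNA library (0.1 nM) was mixed with 1 nM active affinity-purified piRISC carrying one synthetic guide, with or without 500 nM GTSF1 partner protein, in HEPES–potassium acetate buffer at 33 °C for 0–8 or 0–960 min. Three trials were pooled, k3 was capped at 0.0001 min^-1, and a burst-and-steady-state fit gave the pre-steady-state cleavage rate.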", "values": [
      {"sequence": "UCCUGGAUCAGCUAUGCAUAGUAUUUAGUUA", "pre-steady-state target cleavage rate": "1.04 ± 0.073"},
      {"sequence": "UCCUGGAUGUCGAAGCAUAGUAUUUAGGUUA", "pre-steady-state target cleavage rate": "0.00135 ± 0.0057"},
      {"sequence": "UCCUGGAACAGCUUGCAAAGUAUAUAGUUA", "pre-steady-state target cleavage rate": "0.459 ± 0.037"},
      {"sequence": "UCCUGGAUGUGCUUGCAUACAUUUUAGUUA", "pre-steady-state target cleavage rate": "0.000747 ± 0.015"},
      {"sequence": "UCCUCGAUCAGCUUGCAUAGUAUUUAGUAA", "pre-steady-state target cleavage rate": "1.06 ± 0.048"},
      {"sequence": "UCCUGGAUGUCGAUGCAAAGUAUUUAGUUA", "pre-steady-state target cleavage rate": "0.00227 ± 0.0043"},
      {"sequence": "UCCUGGAUGUGCUUGCAUUGUAUUUAGAAA", "pre-steady-state target cleavage rate": "0.00352 ± 0.0044"},
      {"sequence": "UCCUCCUACAGCUUGCAUACUAUUUACUUA", "pre-steady-state target cleavage rate": "0.197 ± 0.023"},
      {"sequence": "UCCUGGAACAGCUUGGAUAGUAAUUAGUUA", "pre-steady-state target cleavage rate": "0.565 ± 0.055"},
      {"sequence": "UCCUCCAUGAGCUUGCAUAGUAUUUAGUAA", "pre-steady-state target cleavage rate": "0.471 ± 0.029"},
      {"sequence": "UCCUGGUACAGAUUGCAUAGUAUUUAGUUA", "pre-steady-state target cleavage rate": "0.58 ± 0.071"},
      {"sequence": "UCCUGGUACAGCUUGCAUAGUAUUUAGAUUA", "pre-steady-state target cleavage rate": "0.179 ± 0.046"},
      {"sequence": "UCCUGGAUCAGCUUGCAUAGUAAUUAGAUA", "pre-steady-state target cleavage rate": "0.216 ± 0.036"},
      {"sequence": "UCCUGGAUGUCGAACCAUAGUAUUUAUUA", "pre-steady-state target cleavage rate": "0.000109 ± 0.05"},
      {"sequence": "UCCUGGAUGUCCUUGCUUAGUAAUUAGUUA", "pre-steady-state target cleavage rate": "0.00291 ± 0.0048"},
      {"sequence": "UCCUGGAACAGCUUGCAUAGUAUCUAGUUA", "pre-steady-state target cleavage rate": "0.508 ± 0.045"},
      {"sequence": "UCCUGGAUGUCGAACCAUAUUAUUUAGUUA", "pre-steady-state target cleavage rate": "0.000559 ± 0.014"},
      {"sequence": "UCCUGGAUGUCGAUGCAAAGUAUUUUGUUA", "pre-steady-state target cleavage rate": "0.000629 ± 0.016"},
      {"sequence": "UCCUGGAUGUCGUUGCAUAGUAUUUAGUAUA", "pre-steady-state target cleavage rate": "0.00137 ± 0.0077"},
      {"sequence": "UCCUGGAUGUGCUUCCUUAGUAUUUAGUUA", "pre-steady-state target cleavage rate": "0.00203 ± 0.0073"},
      {"sequence": "UCCUGGUACAGCUUGCAUAGGUAUUUAGUUA", "pre-steady-state target cleavage rate": "0.00444 ± 0.006"},
      {"sequence": "UCCUGGAUCAGCUUGCAUUGUUUUUAGUUA", "pre-steady-state target cleavage rate": "0.0337 ± 0.0067"},
      {"sequence": "UCCUGGAUCAGCUUGCAUAGUAUUUAGUUA [g2:g22:cont:t1A]", "pre-steady-state target cleavage rate": "1.36 ± 0.054"},
      {"sequence": "UCCUGGAUGUCGAAGCAAAGUUUUUAGUUA", "pre-steady-state target cleavage rate": "0.000725 ± 0.015"},
      {"sequence": "UCCUGCUACAGCUUGCUUAGUAUAUAGUUA", "pre-steady-state target cleavage rate": "0.404 ± 0.038"},
      {"sequence": "UCCUCCUACAGCUUGGUUAGUAUUUAGUAA", "pre-steady-state target cleavage rate": "0.523 ± 0.043"},
      {"sequence": "UCCUGGAUGAGCUUGCUAGUAUUUAGUUA", "pre-steady-state target cleavage rate": "0.00193 ± 0.0057"},
      {"sequence": "UCCUGGAUGUGCUUGCAUAGAUUUUAGAAA", "pre-steady-state target cleavage rate": "0.000908 ± 0.012"},
      {"sequence": "UCCUGGAUGAGCUUGGUAAGUAUUUAGUUA", "pre-steady-state target cleavage rate": "0.0012 ± 0.0071"},
      {"sequence": "UCCUGCUACAGCAUGCAUAGUAUUUAGUAA", "pre-steady-state target cleavage rate": "0.655 ± 0.063"},
      {"sequence": "UCCUGGAUGAGCUUGCAUAGUUAAUACAAA", "pre-steady-state target cleavage rate": "0.000721 ± 0.011"},
      {"sequence": "UCCUGGAUGUGCUUGCAAUCUAUUUAGAAA", "pre-steady-state target cleavage rate": "0.000646 ± 0.012"},
      {"sequence": "UCCUGGAUGUCGAACCAUAGUAUUUAGAUUA", "pre-steady-state target cleavage rate": "0.000338 ± 0.012"},
      {"sequence": "UCCUGGAUGUGCUUGCAUAGGUAUUUAGUUA", "pre-steady-state target cleavage rate": "0.00184 ± 0.0077"}
    ]}
  ]
}
